Experimental data taken from patent US20110081296A1, “SYSTEMS AND METHODS FOR IDENTIFICATION OF CILIOPATHY THERAPEUTICS” (RUTGERS, THE STATE UNIVERSITY OF NEW JERSEY, priority 2009, published 2011).
At least one structure is not confirmed: it was looked up by name or label, or the drawing left a doubt.

Legend:
WT spermatids = assay: in vitro sperm activation of isolated male spermatids, wild type; assay type: cell-based, Caenorhabditis elegans
Procedure: (§1) To isolate spermatids, virgin L4 males were isolated for 2-3 days in 20 degrees and cut with a 25g needle on a glass slide in Sperm Media (SM) pH 7.9 with 10 mM Dextrose. For in vitro activation, 20 ug/ml of Pronase or 100 nM monensin (for in vitro sperm crawling experiments) was added to SM as described in [21]. For wortmannin treatment, a 100× wortmannin stock solution in DMSO was added to reach the final concentration of 100 nM into SM. During sperm activation, a round spermatid develops into a motile spermatozoon with a pseudopod (FIG. 16A). This process can be mimicked in vitro by chemical activators such as the ionophore monensin or Pronase. Within 15 min of Pronase application, the majority of WT male spermatids (63.4%, n=347) extend pseudopods (FIGS. 16B and 16B′), and the average length of spermatozoa is 8.13±1.11 μm (±standard deviation [SD], n=95) (FIG. 16B′). […] The diameter of my15 spermatids is also slightly smaller (6.22±0.54 μm, n=136) than WT (6.73±0.65 μm, n=110, p=8.08E-07). In vivo sperm activation defects were observed also in my15 hermaphrodites. […] Thus, cil-1 positively regulates sperm activation in vitro and in vivo. […] To this end, 1 nM, 10 nM, and 100 nM wortmannin, a pharmacological inhibitor of PI 3-kinases that produce PI(3,4,5)P3 from PI(4,5)P2 [27], were applied to WT and my15 spermatids.

my15 spermatids = assay: in vitro sperm activation of isolated male spermatids, cil-1(my15) mutant; assay type: cell-based, Caenorhabditis elegans; conditions: 1 nM, 10 nM and 100 nM, all concentrations tested
Procedure: as §1

SMILES: COC[C@H]1OC(=O)c2coc3c2[C@@]1(C)C1=C(C3=O)[C@@H]2CCC(=O)[C@@]2(C)C[C@H]1OC(C)=O [wortmannin]
- time to activation to spermatozoa with pseudopods (WT spermatids; WT male-derived sperm, 100 nM): ≤ 10 min
- in vitro activation of spermatids (WT spermatids; WT spermatids, 1 nM, 10 nM and 100 nM, all concentrations tested): in vitro activator of WT
- in vitro activation of spermatids (my15 spermatids): not my 15 spermatids
